Measurements: patent US20040097712A1 (Amgen, published 2004)
No constants are given. Whether binding was seen depends on the method and setting. Some entries that bind do so weakly or less than the wild type.

Sequences of proteins named here, by UniProt entry; tags and fusion partners are left off. Residues count along the entry.
UniProt P14778, residues 18-336: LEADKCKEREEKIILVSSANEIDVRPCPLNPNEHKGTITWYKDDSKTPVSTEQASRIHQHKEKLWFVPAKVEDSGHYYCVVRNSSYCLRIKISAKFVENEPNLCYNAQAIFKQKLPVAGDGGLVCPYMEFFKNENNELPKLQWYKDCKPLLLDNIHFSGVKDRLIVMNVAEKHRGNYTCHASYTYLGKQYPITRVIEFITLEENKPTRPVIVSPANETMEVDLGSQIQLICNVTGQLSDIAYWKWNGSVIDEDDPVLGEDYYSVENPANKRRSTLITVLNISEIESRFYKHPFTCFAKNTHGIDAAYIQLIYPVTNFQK
UniProt P18510, residues 26-177: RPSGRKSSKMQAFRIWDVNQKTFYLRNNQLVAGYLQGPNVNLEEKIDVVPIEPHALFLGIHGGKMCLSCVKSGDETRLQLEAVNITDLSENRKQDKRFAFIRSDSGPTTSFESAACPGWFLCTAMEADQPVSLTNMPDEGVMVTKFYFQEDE

Target: biotinylated IL-1R1 (recombinant, on streptavidin-coated beads) (UniProt P14778)
Assay: ECL competition of IL-1R1/IL-1beta/IL-1RAcP complex formation (IL-1beta 1 nM, ruthenium-IL-1RAcP 5 nM, biotinylated IL-1R1 on beads)

binding: binds
Substance: Interleukin-1 receptor antagonist (IL-1ra) (from UniProt P18510 26-177) (ligand)
